Results from PMC6469404.

Sequences of proteins named here, by UniProt entry; tags and fusion partners are left off.
UniProt P39926: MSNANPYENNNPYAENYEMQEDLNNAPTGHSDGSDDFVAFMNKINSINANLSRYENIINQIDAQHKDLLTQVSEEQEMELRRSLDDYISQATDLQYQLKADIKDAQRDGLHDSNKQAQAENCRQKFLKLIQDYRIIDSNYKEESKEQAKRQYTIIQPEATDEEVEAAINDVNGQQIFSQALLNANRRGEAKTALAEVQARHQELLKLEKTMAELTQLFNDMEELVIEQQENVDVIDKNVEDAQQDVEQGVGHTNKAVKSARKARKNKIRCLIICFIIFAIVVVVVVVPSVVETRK
UniProt P23291: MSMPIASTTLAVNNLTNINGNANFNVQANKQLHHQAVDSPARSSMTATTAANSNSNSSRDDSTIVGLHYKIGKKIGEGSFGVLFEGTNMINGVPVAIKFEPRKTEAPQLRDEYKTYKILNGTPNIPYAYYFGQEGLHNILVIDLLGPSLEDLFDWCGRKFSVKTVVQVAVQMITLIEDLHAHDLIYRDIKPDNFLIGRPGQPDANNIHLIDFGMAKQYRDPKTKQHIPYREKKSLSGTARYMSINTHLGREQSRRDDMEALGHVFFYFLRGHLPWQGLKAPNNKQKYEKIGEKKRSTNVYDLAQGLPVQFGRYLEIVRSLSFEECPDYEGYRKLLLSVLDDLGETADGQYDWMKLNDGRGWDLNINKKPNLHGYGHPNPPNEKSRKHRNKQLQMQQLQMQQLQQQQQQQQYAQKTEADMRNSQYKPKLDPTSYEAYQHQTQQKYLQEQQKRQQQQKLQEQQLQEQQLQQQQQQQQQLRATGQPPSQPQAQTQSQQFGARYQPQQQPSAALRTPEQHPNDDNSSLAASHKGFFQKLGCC

T1: Wsc1-GFP (S. cerevisiae) (UniProt P54867)
T1 sequence: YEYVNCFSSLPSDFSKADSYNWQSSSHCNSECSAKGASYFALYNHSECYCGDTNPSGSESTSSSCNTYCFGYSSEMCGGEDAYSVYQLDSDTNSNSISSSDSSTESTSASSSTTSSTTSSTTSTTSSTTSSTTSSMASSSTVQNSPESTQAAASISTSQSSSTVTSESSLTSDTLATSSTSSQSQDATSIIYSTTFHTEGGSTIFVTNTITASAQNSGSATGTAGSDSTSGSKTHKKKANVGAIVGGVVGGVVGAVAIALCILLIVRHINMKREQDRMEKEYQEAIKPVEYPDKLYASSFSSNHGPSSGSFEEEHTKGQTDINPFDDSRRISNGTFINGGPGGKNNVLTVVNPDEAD

T2: Mid2-GFP (S. cerevisiae) (UniProt P36027)
T2 sequence: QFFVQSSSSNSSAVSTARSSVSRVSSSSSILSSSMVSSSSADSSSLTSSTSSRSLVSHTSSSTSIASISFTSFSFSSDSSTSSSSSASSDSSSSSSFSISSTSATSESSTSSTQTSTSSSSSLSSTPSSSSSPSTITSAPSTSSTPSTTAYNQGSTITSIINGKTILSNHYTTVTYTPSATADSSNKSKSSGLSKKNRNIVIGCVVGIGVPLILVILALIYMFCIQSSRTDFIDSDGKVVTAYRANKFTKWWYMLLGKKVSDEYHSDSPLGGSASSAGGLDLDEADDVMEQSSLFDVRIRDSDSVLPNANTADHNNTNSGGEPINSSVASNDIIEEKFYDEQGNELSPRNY

B1: Crn1 (endogenous) (protein, UniProt Q06440 1-651)
chain: MSGKFVRASKYRHVFGQAAKKELQYEKLKVTNNAWDSNLLKTNGKFIAVNWNASGGGAFAVIPIEEVGKAPDQVPLFRGHTAQVLDTDFDPFNDHRIASGSDDSKIGIWDIPENYKFHDHVDEDGEPIDIKPVKFLTGHARKVGHVLYHPVAENVLASSSGDYTVKLWNVETGKDMITLKHPDMVTSMSFSYDGNYLATVARDKKLRVWNIREEKIVSEGPAHTGAKNQRVVWLGNSDRLATTGFSKLSDRQIGIWDAFNIEKGDLGGFYTVDQSSGILMPFYDEGNKILYLVGKGDGNIRYYEFQNDELFELSEFQSTEAQRGFAVAPKRMVNVKENEVLKGFKTVVDQRIEPVSFFVPRRSEEFQEDIYPDAPSNKPALTAEEWFSGKSVEGPILVSMRSIYDGSAPSFHEAKRPQQPTTQETALEEKKEQPKVEKPISESEKEVKQEAPKSPSPLKSASSSSTINHVLKEDNSINKLLKKSSDIDQVNNAEDPSRDTSGWEEADDEPAPIKIETPVTPTETKKDRTPKVEPSKELKPEPVSIATDRKQEQSLPQEEKSSEKTKSPEQEKSATPPSSITAAKTAITASSKEEPSAARTSPKSLGLKKSVEKLSTLVLQLEDVVDKLTKANLDKDERLLKLEQKIGELSK
B2: Abp1 (endogenous) (protein, UniProt P15891 1-592)
chain: MALEPIDYTTHSREIDAEYLKIVRGSDPDTTWLIISPNAKKEYEPESTGSSFHDFLQLFDETKVQYGLARVSPPGSDVEKIIIIGWCPDSAPLKTRASFAANFAAVANNLFKGYHVQVTARDEDDLDENELLMKISNAAGARYSIQTSSKQQGKASTPPVKKSFTPSKSPAPVSKKEPVKTPSPAPAAKISSRVNDNNDDDDWNEPELKERDFDQAPLKPNQSSYKPIGKIDLQKVIAEEKAKEDPRLVQKPTAAGSKIDPSSDIANLKNESKLKRDSEFNSFLGTTKPPSMTESSLKNDDDKVIKGFRNEKSPAQLWAERKAKQNSGNAETKAEAPKPEVPEDEPEGEPDVKDLKSKFEGLAASEKEEEEMENKFAPPPKKSEPTIISPKPFSKPQEPVKAEEAEQPKTDYKKIGNPLPGMHIEADNEEEPEENDDDWDDDEDEAAQPPLPSRNVASGAPVQKEEPEQEEIAPSLPSRNSIPAPKQEEAPEQAPEEEIEEEAEEAAPQLPSRSSAAPPPPPRRATPEKKPKENPWATAEYDYDAAEDNELTFVENDKIINIEFVDDDWWLGELEKDGSKGLFPSNYVSLGN
B3: Ras2 (endogenous) (protein, UniProt P01120 1-322)
chain: MPLNKSNIREYKLVVVGGGGVGKSALTIQLTQSHFVDEYDPTIEDSYRKQVVIDDEVSILDILDTAGQEEYSAMREQYMRNGEGFLLVYSITSKSSLDELMTYYQQILRVKDTDYVPIVVVGNKSDLENEKQVSYQDGLNMAKQMNAPFLETSAKQAINVEEAFYTLARLVRDEGGKYNKTLTENDNSKQTSQDTKGSGANSVPRNSGGHRKMSNAANGKNVNSSTTVVNARNASIESKTGLAGNQATNGKTQTDRTNIDNSTGQAGQANAQSANTVNNRVNNNSKAGQVSNAKQARKQQAAPGGNTSEASKSGSGGCCIIS

Legend:
Experiment in all cases: affinity purification with mass spectrometry; immunoprecipitation (IP-MS) of GFP-tagged bait with anti-GFP microbeads from yeast lysate cross-linked with 1 mM DSP, 1% digitonin, on-bead digestion; BY4741 as control
Wsc1-GFP (S. cerevisiae) [1] = target: T1, Wsc1-GFP (S. cerevisiae)
Mid2-GFP (S. cerevisiae) [2] = target: T2, Mid2-GFP (S. cerevisiae)
Wsc1-GFP (S. cerevisiae) [3] = target: T1, Wsc1-GFP (S. cerevisiae); remark: listed apart in the source
Mid2-GFP (S. cerevisiae) [4] = target: T2, Mid2-GFP (S. cerevisiae); remark: listed apart in the source

Molecule	binding (Wsc1-GFP (S. cerevisiae) [1])	binding (Mid2-GFP (S. cerevisiae) [2])	binding (Wsc1-GFP (S. cerevisiae) [3])	binding (Mid2-GFP (S. cerevisiae) [4])
Sso2 (endogenous) (from UniProt P39926 1-295)	binds	binds	–	–
Yck1 (endogenous) (from UniProt P23291 1-538)	binds	binds	–	–
B1	–	–	binds	binds
B2	–	–	–	binds
B3	–	–	binds	binds

Read-outs that look alike come from different tables or passages of the source. No constants are given. Whether binding was seen depends on the method and setting. In cells and extracts the contact can be indirect. Here binding means that the protein was enriched with, or labelled near, the bait; the list need not be complete. Tags and fused reporters may be left off the sequences shown.
